The values that follow come from article PMC3111809.

In this assay the target is NhaA, sodium-proton exchanger (UniProt P13738). Nature of the assay: crystal structure; NhaA crystals optimised in the detergent 12M, diffracting to 3.5 Å in the best direction; arrangement in the crystal told as unpublished data; both purified.

These are yes or no findings as the source states them, for the method shown. Some binding calls cover weakened binding; strength is not graded here.

B1: NhaA, sodium-proton exchanger (protein, UniProt P13738 1-388)
chain: MKHLHRFFSSDASGGIILIIAAILAMIMANSGATSGWYHDFLETPVQLRVGSLEINKNMLLWINDALMAVFFLLVGLEVKRELMQGSLASLRQAAFPVIAAIGGMIVPALLYLAFNYADPITREGWAIPAATDIAFALGVLALLGSRVPLALKIFLMALAIIDDLGAIIIIALFYTNDLSMASLGVAAVAIAVLAVLNLCGARRTGVYILVGVVLWTAVLKSGVHATLAGVIVGFFIPLKEKHGRSPAKRLEHVLHPWVAYLILPLFAFANAGVSLQGVTLDGLTSILPLGIIAGLLIGKPLGISLFCWLALRLKLAHLPEGTTYQQIMVVGILCGIGFTMSIFIASLAFGSVDPELINWAKLGILVGSISSAVIGYSWLRVRLRPSV
Consider B1, for which the binding result is “binds”.
